These results are taken from article PMC7317449.

Results are given in words; binding and its absence hold for the method and conditions named. For some of these results: A result given as binding can be weak or reduced; the word gives no strength.

For assay [1], the target named is T1, N-lobe of the EF-domain of hNOX5 (residues 1–77) (human) (UniProt Q96PH1).
T1 sequence: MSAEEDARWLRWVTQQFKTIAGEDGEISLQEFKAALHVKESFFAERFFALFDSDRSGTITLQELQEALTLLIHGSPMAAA
Kind of assay: NMR titration; 1H-15N HSQC, labeled N- or C-lobe (40 µM) mixed with unlabeled DH-domain (80 µM), 20 °C, in the presence of calcium; both purified.

Assay [2] concerns the target T2, C-lobe of the EF-domain of hNOX5 (residues 78–161) (human) (UniProt Q96PH1).
T2 sequence: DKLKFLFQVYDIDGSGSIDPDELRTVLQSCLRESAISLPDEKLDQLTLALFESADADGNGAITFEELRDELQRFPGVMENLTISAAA
The description is as above.

Assay [3] concerns the target T1, N-lobe of the EF-domain of hNOX5 (residues 1–77) (human). Kind of assay: NMR titration; 1H-15N HSQC, labeled N- or C-lobe (40 µM) mixed with unlabeled DH-domain (80 µM), 20 °C, in the absence of calcium; both purified.
The target in assay [4] is T2, C-lobe of the EF-domain of hNOX5 (residues 78–161) (human). Kind of assay: condition: only in the absence of calcium (80 µM DH-domain with 40 µM lobe); NMR titration; 1H-15N HSQC, labeled N- or C-lobe (40 µM) mixed with unlabeled DH-domain (80 µM), 20 °C, in the absence of calcium; both purified.

For the substance “C. stagnale DH-domain, thermostable mutant (csDH^PWLELAAA) (Cylindrospermum stagnale) (domain or fragment)”, the binding entry is listed as “no binding (tested: 80 µM DH-domain with 40 µM lobe)” in assay [1], “binds weakly” in assay [2], “no binding (tested: 80 µM DH-domain with 40 µM lobe)” in assay [3] and “no binding” in assay [4].
